According to patent EP1243590A2, “Nucleotide analog composition and synthesis method” (GILEAD SCIENCES, INC., priority 1997, dated 1999):
At least one read-out could not be matched to a standard name with certainty.

Test: Solid state chemical stability on storage at elevated temperature and relative humidity
Type: physicochemical
Conditions: 75% relative humidity, degradation product in stored BPPF
Excerpt: The solid state chemical stability of cBPPF and bis(POC)PMPA·citrate salt was compared by analyzing each compound after storage under different conditions.

For “9-[2-(R)-[[bis[[(isopropoxycarbonyl)oxy]methoxy] phosphinoyl]methoxy]propyl]-adenine•fumaric acid (1:1) [BPPF]”, which “mono(POC) PMPA fumarate%” value (40°C, 14 days) is on record?
The value was 1.7%.

What about the “mono(POC) PMPA fumarate%” value (40°C, 30 days) of the same substance?
The value was 1.9%.

What about the “mono(POC) PMPA fumarate%” value (40°C, 60 days) of the same substance?
Its value is 2.9%.

What about the “mono(POC) PMPA fumarate%” value (60°C, 3 days) of the same substance?
Its value is 3.1%.

And the “mono(POC) PMPA fumarate%” value (60°C, 11 days)?
The value was 9.6%.

What about the “mono(POC) PMPA fumarate%” value (60°C, 15 days) of the same substance?
The value was 18.7%.
